Measurements taken from US7462639B2, “Aminopyrazole derivatives” (Hoffmann-La Roche Inc., priority 2005, dated 2008).
Some of these results come from one statement about several compounds together. Some ranges recur; such a range may be that of the whole group of compounds.

Legend:
[1] = biological target: T1, Aurora A kinase (Homo sapiens, UniProt O14965); test: IC50 determination for inhibitors of Aurora A (ELISA-type kinase assay); assay type: biochemical; details: GST-Histone H3 substrate, mutant Aurora A kinase, 30 μM ATP, 40 minutes, read-out: IC50 Aurora A kinase inhibition
T1 sequence (O14965 1-403): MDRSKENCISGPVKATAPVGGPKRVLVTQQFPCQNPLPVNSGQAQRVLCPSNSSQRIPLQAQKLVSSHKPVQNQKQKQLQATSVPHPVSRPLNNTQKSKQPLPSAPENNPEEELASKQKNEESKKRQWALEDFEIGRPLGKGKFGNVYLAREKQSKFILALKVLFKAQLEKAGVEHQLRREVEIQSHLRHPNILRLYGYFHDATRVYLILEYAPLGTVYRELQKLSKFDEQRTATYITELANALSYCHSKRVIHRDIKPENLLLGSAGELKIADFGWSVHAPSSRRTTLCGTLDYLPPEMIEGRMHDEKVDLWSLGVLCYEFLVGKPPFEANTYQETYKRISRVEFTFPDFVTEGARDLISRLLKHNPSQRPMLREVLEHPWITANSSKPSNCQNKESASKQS
Description: Aurora A is a serine threonine kinase involved in spindle assembly and chromosome segregation. The assay is a typically ELISA-type assay where substrate (GST-Histone H3) is coupled to the assay-plate and is phosphorylated by the kinase. Phosphorylation is detected by a mouse anti-Phosphopeptid mAb and an HRP-labeled anti-mouse pAb. The assay is validated for IC50-determination.
Kinase activities were measured by Enzyme-Linked Immunosorbent Assay (ELISA): Maxisorp 384-well plates (Nunc) were coated with recombinant fusion protein comprising residues 1-15 of HistoneH3 fused to the N-terminus of Glutathione-S-Transferase. Plates were then blocked with a solution of 1 mg/mL I-block (a highly purified form of casein, Tropix cat. no. T2015) in phosphate-buffered saline. Kinase reactions were carried out in the wells of the ELISA plate by combining an appropriate amount of mutant Aurora A kinase with test compound and 30 μM ATP. The reaction buffer was 10× Kinase Buffer (Cell Signaling cat. no. 9802) supplemented with 1 μg/mL I-block. Reactions were stopped after 40 minutes by addition of 25 mM EDTA. After washing, substrate phosphorylation was detected by addition of anti-phospho-Histone H3 (Ser 10) 6G3 mAb (Cell Signaling cat. no. 9706) and sheep anti-mouse pAb-HRP (Amersham cat# NA931V), followed by colorimetric development with TMB (3,3′,5,5′-tetramethylbenzidine from Kirkegaard & Perry Laboratories). After readout of the adsorbance, IC50 values were calculated using a non-linear curve fit (XLfit software (ID Business Solution Ltd., Guilford, Surrey, UK)).

[2] = test system: HCT 116 cells; test: Viability assay in HCT 116 cells (CellTiter-Glo); assay type: cell-based; details: HCT 116 human colon carcinoma cells, 5 days incubation, ATP luminescence readout
Description: A viability assay was performed using the CellTiter-Glo® Luminescent Cell Viability Assay (see Promega Corporation's Technical Bulletin No. 288, pp. 1-11 [revised 2/04] which is hereby incorporated by reference in its entirety). This assay is a homogeneous method of determining the number of viable cells in culture based on quantitation of the ATP present, an indicator of metabolically active cells. The assay is designed for use with multiwell formats, making it ideal for automated high-throughput screening (HTS), cell proliferation and cytotoxicity assays. The homogeneous assay procedure involves adding a single reagent (containing luciferase, luciferan substrate, and buffer) directly to cells cultured in serum-supplemented medium. Cell washing, removal of medium and multiple pipetting steps are not required. The system detects as few as 15 cells/well in a 384-well format in 10 minutes after adding reagent and mixing.
The homogeneous “add-mix-measure” format results in cell lysis and generation of a luminescent signal proportional to the amount of ATP present. The amount of ATP is directly proportional to the number of cells present in culture. The above-referenced assay generates a “glow-type” luminescent signal, produced by the luciferase reaction, which has a half-life generally greater than five hours, depending on cell type and medium used. The extended half-life eliminates the need to use reagent injectors and provides flexibility for continuous or batch mode processing of multiple plates. The unique homogeneous format avoids errors that may be introduced by other ATP measurement methods that require multiple steps.
HCT 116 cells (human colon carcinoma, ATCC-No. CCl-247) were cultivated in RPMI 1640 medium with GlutaMAX™ I (cell culture media that contains L-Alanyl-L-Glutamine [a stabilized a form/source of L-Glutamine] from Invitrogen, Cat-No. 61870-010), 2.5% Fetal Calf Serum (FCS, Sigma Cat-No. F4135 (FBS)); 100 Units/ml penicillin/100 μg/ml streptomycin (=Pen/Strep from Invitrogen Cat. No. 15140). For the assay the cells were seeded in 384 well plates, 1000 cells per well, in the same medium. The next day the test compounds were added in various concentrations ranging from 30 μM to 0.0015 μM (10 concentrations, 1:3 diluted). After 5 days the viability assay was done according to the instructions of the manufacturer. In brief: the cell-plate was equilibrated to room temperature for approximately 30 minutes and then reagent (containing luciferase, luciferan substrate, and buffer) was added. The contents were carefully mixed for 15 minutes to induce cell lysis. After 45 minutes the luminescent signal was measured in Victor 2, (scanning multiwell spectrophotometer, Wallac).
Medium: RPMI 1640 with cell culture media containing L-Alanyl-L-Glutamine [GlutaMAX™ I (Invitrogen, Cat-No. 61870)], 5% FCS (Sigma Cat.-No. F4135), Pen/Strep (Invitrogen, Cat No. 15140).
HCT116 (ATCC-No. CCl-247): 1000 cells in 60 μl per well of 384 well plate (Greiner 781098, μClear-plate white)
After seeding incubate plates 24 h at 37° C., 5% CO2
2nd. Day: Induction (Treatment with Compounds, 10 Concentrations):
In order to achieve a final concentration of 30 μM as highest concentration […] of 10 mM compound stock solution were added directly to […] media. Then step d) of the dilution procedure described below, was followed. […]

Compound | IC50 [1] [nM] | IC50 [2] [nM]
CCN1C(=O)C(C)(C)c2cc3[nH]c(-c4n[nH]cc4NC(=O)c4cc(OC)c(OC)c(OC)c4)nc3cc21 [Example B-31, N-[3-(5-Ethyl-7,7-dimethyl-6-oxo-1,5,6,7-tetrahydro-imidazo[4,5-f]indol-2-yl)-1H-pyrazol-4-yl]-3,4,5-trimethoxy-benzamide] | 1 to 500 | 1 to 1500
CC(C)N1C(=O)C(C)(C)c2cc3nc(-c4n[nH]cc4NC(=O)N4CCCCCC4)[nH]c3cc21 [Example F-9] | 1 to 500 | 1 to 1500
CCN1C(=O)C(C)(C)c2cc3[nH]c(-c4n[nH]cc4NC(=O)CCc4ccccc4)nc3cc21 [Example B-8, N-[3-(5-Ethyl-7,7-dimethyl-6-oxo-1,5,6,7-tetrahydro-imidazo[4,5-f]indol-2-yl)-1H-pyrazol-4-yl]-3-phenyl-propionamide] | 1 to 500 | 1 to 1500
CCN1C(=O)C(C)(C)c2cc3[nH]c(-c4n[nH]cc4NC(=O)c4ccco4)nc3cc21 [Example B-15, Furan-2-carboxylic acid[3-(5-ethyl-7,7-dimethyl-6-oxo-1,5,6,7-tetrahydro-imidazo[4,5-f]indol-2-yl)-1H-pyrazol-4-yl]-amide] | 1 to 500 | 1 to 1500
CCN1C(=O)C(C)(C)c2cc3[nH]c(-c4n[nH]cc4NC(=O)C4(c5ccccc5)CC4)nc3cc21 [Example C-16, 1-Phenyl-cyclopropanecarboxylic acid[3-(5-ethyl-7,7-dimethyl-6-oxo-1,5,6,7-tetrahydro-imidazo[4,5-f]indol-2-yl)-1H-pyrazol-4-yl]-amide] | 1 to 500 | 1 to 1500
CCN1C(=O)C(C)(C)c2cc3[nH]c(-c4n[nH]cc4NC(=O)OC(C)C)nc3cc21 [Example E-22, [3-(5-Ethyl-7,7-dimethyl-6-oxo-1,5,6,7-tetrahydro-imidazo[4,5-f]indol-2-yl)-1H-pyrazol-4-yl]-carbamic acid isopropyl ester] | 1 to 500 | 1 to 1500
CCN1C(=O)C(C)(C)c2cc3[nH]c(-c4n[nH]cc4NC(=O)C(C)Oc4ccccc4)nc3cc21 (stereo not drawn) [Example C-7, N-[3-(5-Ethyl-7,7-dimethyl-6-oxo-1,5,6,7-tetrahydro-imidazo[4,5-f]indol-2-yl)-1H-pyrazol-4-yl]-2-phenoxy-propionamide] | 1 to 500 | 1 to 1500
CCN1C(=O)C(C)(C)c2cc3[nH]c(-c4n[nH]cc4NC(=O)COc4ccccc4)nc3cc21 [Example B-26, N-[3-(5-Ethyl-7,7-dimethyl-6-oxo-1,5,6,7-tetrahydro-imidazo[4,5-f]indol-2-yl)-1H-pyrazol-4-yl]-2-phenoxy-acetamide] | 1 to 500 | 1 to 1500
CCN1C(=O)C(C)(C)c2cc3[nH]c(-c4n[nH]cc4NC(=O)N(C(C)C)C(C)C)nc3cc21 [Example E-17, 3-[3-(5-Ethyl-7,7-dimethyl-6-oxo-1,5,6,7-tetrahydro-imidazo[4,5-f]indol-2-yl)-1H-pyrazol-4-yl]-1,1-diisopropyl-urea] | 1 to 500 | 1 to 1500
CCN1C(=O)C(C)(C)c2cc3[nH]c(-c4n[nH]cc4NC(=O)N4CCCCC4)nc3cc21 [Example E-2, Piperidine-1-carboxylic acid[3-(5-ethyl-7,7-dimethyl-6-oxo-1,5,6,7-tetrahydro-imidazo[4,5-f]indol-2-yl)-1H-pyrazol-4-yl]-amide] | 1 to 500 | 1 to 1500
CCN1C(=O)C(C)(C)c2cc3[nH]c(-c4n[nH]cc4NC(=O)N4CCNC(=O)C4)nc3cc21 [Example F-2, 3-Oxo-piperazine-1-carboxylic acid[3-(5-ethyl-7,7-dimethyl-6-oxo-1,5,6,7-tetrahydro-imidazo[4,5-f]indol-2-yl)-1H-pyrazol-4-yl]-amide] | 1 to 500 | 1 to 1500
CCC1(CC)C(=O)N(C(C)C)c2cc3nc(-c4n[nH]cc4NC(=O)C4(C)CC4)[nH]c3cc21 [Example C-20, 1-Methyl-cyclopropanecarboxylic acid[3-(7,7-diethyl-5-isopropyl-6-oxo-1,5,6,7-tetrahydro-imidazo[4,5-f]indol-2-yl)-1H-pyrazol-4-yl]-amide] | 1 to 500 | 1 to 1500
CCN1C(=O)C(C)(C)c2cc3[nH]c(-c4n[nH]cc4NC(=O)N(Cc4ccccc4)C(C)C)nc3cc21 [Example F-3, 1-Benzyl-3-[3-(5-ethyl-7,7-dimethyl-6-oxo-1,5,6,7-tetrahydro-imidazo[4,5-f]indol-2-yl)-1H-pyrazol-4-yl]-1-isopropyl-urea] | 1 to 500 | 1 to 1500
CCN1C(=O)C(C)(C)c2cc3[nH]c(-c4n[nH]cc4NC(=O)c4cccs4)nc3cc21 [Example B-23, Thiophene-2-carboxylic acid[3-(5-ethyl-7,7-dimethyl-6-oxo-1,5,6,7-tetrahydro-imidazo[4,5-f]indol-2-yl)-1H-pyrazol-4-yl]-amide] | 1 to 500 | 1 to 1500
CCN1C(=O)C(C)(C)c2cc3[nH]c(-c4n[nH]cc4NC(=O)C4CCCC4)nc3cc21 [Example B-6, Cyclopentanecarboxylic acid[3-(5-ethyl-7,7-dimethyl-6-oxo-1,5,6,7-tetrahydro-imidazo[4,5f]indol-2-yl)-1H-pyrazol-4-yl]-amide] | 1 to 500 | 1 to 1500
CCN1C(=O)C(C)(C)c2cc3[nH]c(-c4n[nH]cc4NC(=O)C4(C)CC4)nc3cc21 [Example C-15, 1-Methyl-cyclopropanecarboxylic acid[3-(5-ethyl-7,7-dimethyl-6-oxo-1,5,6,7-tetrahydro-imidazo[4,5-f]indol-2-yl)-1H-pyrazol-4-yl]-amide] | 1 to 500 | 1 to 1500
CCC1(CC)C(=O)N(C(C)C)c2cc3nc(-c4n[nH]cc4NC(=O)N4CCCCCC4)[nH]c3cc21 [Example F-10, Azepane-1-carboxylic acid[3-(7,7-diethyl-5-isopropyl-6-oxo-1,5,6,7-tetrahydro-imidazo[4,5-f]indol-2-yl)-1H-pyrazol-4-yl]-amide] | 1 to 500 | 1 to 1500
CCN1C(=O)C(C)(C)c2cc3[nH]c(-c4n[nH]cc4NC(=O)c4ccccn4)nc3cc21 [Example C-3, Pyridine-2-carboxylic acid[3-(5-ethyl-7,7-dimethyl-6-oxo-1,5,6,7-tetrahydro-imidazo[4,5-f]indol-2-yl)-1H-pyrazol-4-yl]-amide] | 1 to 500 | 1 to 1500
